Like-named read-outs stand apart in the source and are kept apart here. No constants are given. Whether binding was seen depends on the method and setting. In cells and extracts the contact can be indirect. These calls come from enrichment with a bait or labelling near it, and not all partners need be listed.

The chains behind the UniProt entries cited, without tags or fusion partners.
UniProt Q6W2J9: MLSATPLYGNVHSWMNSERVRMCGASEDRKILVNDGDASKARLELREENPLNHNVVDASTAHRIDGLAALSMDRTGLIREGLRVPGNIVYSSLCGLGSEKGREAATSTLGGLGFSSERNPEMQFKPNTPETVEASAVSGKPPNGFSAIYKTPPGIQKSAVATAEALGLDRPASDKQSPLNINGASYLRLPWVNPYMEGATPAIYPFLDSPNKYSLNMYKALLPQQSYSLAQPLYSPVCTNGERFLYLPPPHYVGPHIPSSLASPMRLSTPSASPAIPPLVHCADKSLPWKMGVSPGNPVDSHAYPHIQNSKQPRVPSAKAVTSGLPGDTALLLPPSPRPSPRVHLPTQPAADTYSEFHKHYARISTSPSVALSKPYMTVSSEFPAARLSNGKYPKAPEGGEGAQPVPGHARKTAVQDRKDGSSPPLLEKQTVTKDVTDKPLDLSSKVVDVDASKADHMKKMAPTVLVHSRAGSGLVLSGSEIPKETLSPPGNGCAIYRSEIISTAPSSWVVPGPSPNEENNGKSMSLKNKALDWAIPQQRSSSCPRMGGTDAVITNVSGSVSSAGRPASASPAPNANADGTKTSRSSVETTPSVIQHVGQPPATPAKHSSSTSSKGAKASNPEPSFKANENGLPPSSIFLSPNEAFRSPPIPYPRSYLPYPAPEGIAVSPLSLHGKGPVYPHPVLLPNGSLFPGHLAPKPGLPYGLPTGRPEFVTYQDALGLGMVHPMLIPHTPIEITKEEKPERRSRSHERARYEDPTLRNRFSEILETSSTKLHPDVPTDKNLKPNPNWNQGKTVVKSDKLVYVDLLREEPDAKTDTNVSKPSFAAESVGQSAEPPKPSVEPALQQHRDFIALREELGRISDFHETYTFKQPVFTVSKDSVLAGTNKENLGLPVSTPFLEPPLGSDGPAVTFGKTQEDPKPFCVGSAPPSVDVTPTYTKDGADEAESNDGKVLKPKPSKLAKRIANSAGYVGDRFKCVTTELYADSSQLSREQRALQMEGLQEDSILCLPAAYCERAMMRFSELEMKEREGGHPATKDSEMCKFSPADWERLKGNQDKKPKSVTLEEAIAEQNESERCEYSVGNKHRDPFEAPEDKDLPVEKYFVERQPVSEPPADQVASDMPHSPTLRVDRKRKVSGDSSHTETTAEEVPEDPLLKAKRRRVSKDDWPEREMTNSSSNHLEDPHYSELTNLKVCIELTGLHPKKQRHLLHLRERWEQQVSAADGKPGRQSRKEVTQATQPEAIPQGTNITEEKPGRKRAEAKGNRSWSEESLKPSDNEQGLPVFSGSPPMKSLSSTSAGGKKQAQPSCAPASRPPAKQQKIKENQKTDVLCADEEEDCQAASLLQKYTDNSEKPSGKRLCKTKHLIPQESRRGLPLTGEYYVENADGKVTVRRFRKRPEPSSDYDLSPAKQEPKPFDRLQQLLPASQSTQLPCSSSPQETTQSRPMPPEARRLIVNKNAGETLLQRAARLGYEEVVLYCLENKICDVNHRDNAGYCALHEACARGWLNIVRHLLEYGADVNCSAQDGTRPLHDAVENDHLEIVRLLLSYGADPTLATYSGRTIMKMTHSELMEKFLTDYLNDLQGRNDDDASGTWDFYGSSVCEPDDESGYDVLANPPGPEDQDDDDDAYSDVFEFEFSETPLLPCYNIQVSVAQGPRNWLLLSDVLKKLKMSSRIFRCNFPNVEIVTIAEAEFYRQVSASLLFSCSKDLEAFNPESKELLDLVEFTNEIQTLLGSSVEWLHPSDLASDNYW
UniProt Q9UKT9: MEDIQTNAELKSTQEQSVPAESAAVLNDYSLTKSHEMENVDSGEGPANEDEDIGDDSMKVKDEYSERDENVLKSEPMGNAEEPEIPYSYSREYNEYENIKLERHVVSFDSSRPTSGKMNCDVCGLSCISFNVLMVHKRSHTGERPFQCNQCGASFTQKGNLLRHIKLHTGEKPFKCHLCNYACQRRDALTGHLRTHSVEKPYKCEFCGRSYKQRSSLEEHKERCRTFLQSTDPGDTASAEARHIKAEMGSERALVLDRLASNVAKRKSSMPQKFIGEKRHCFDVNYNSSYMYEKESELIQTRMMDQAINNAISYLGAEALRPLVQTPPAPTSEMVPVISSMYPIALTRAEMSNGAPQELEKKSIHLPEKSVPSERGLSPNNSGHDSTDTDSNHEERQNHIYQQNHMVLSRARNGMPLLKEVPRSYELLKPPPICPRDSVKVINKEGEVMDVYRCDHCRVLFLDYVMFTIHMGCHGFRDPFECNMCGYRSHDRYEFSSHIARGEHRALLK
UniProt Q01196: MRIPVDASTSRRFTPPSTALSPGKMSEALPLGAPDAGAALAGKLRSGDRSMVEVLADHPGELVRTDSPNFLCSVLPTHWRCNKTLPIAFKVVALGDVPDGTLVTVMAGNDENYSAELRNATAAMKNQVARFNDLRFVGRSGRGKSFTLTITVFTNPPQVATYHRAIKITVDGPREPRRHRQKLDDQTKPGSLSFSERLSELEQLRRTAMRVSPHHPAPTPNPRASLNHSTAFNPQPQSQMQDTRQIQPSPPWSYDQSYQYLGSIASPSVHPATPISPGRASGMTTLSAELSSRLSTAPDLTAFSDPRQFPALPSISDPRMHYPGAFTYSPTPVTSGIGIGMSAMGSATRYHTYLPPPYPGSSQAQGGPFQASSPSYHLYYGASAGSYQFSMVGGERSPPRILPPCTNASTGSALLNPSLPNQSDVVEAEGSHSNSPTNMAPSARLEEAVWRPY

The target of experiment [1] is T1, hypermethylated in cancer 1 (HIC1) (human) (UniProt Q14526).
T1 sequence: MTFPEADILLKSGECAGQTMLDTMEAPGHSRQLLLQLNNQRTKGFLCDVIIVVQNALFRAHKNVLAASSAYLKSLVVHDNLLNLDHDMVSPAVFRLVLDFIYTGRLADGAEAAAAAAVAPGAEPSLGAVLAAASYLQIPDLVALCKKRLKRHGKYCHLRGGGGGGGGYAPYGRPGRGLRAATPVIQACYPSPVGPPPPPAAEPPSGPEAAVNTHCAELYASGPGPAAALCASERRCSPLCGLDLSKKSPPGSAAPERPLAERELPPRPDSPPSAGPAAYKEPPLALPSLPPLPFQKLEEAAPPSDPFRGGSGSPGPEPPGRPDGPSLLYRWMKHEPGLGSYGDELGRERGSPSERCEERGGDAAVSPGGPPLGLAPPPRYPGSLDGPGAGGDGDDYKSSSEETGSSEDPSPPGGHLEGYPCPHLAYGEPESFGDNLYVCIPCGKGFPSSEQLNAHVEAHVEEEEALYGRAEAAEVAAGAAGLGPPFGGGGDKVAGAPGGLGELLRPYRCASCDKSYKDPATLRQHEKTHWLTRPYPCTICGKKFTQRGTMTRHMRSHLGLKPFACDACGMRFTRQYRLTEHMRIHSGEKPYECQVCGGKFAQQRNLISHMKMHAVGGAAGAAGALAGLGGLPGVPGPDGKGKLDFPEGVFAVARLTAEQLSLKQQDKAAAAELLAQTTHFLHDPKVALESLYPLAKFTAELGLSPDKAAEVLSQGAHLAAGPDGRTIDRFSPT
Put plainly: affinity purification with mass spectrometry.

The target of experiment [2] is T1, hypermethylated in cancer 1 (HIC1) (human). Put plainly: affinity purification with mass spectrometry. This is another data set of the same source.

Consider “BCOR (BCL-6 interacting corepressor) (from UniProt Q6W2J9 1-1755)”, for which the binding result in experiment [1] and in experiment [2] was “binds” throughout.

As for IKZF3 (from UniProt Q9UKT9 1-509), the binding entry in experiment [1] and in experiment [2] was “binds” throughout.

For “Runt-related transcription factor 1 (RUNX1) (from UniProt Q01196 1-453)”, the binding entry in experiment [1] and in experiment [2] was “binds” in each case.

B1: MARS (enzyme, UniProt P56192 1-900)
chain: MRLFVSDGVPGCLPVLAAAGRARGRAEVLISTVGPEDCVVPFLTRPKVPVLQLDSGNYLFSTSAICRYFFLLSGWEQDDLTNQWLEWEATELQPALSAALYYLVVQGKKGEDVLGSVRRALTHIDHSLSRQNCPFLAGETESLADIVLWGALYPLLQDPAYLPEELSALHSWFQTLSTQEPCQRAAETVLKQQGVLALRPYLQKQPQPSPAEGRAVTNEPEEEELATLSEEEIAMAVTAWEKGLESLPPLRPQQNPVLPVAGERNVLITSALPYVNNVPHLGNIIGCVLSADVFARYSRLRQWNTLYLCGTDEYGTATETKALEEGLTPQEICDKYHIIHADIYRWFNISFDIFGRTTTPQQTKITQDIFQQLLKRGFVLQDTVEQLRCEHCARFLADRFVEGVCPFCGYEEARGDQCDKCGKLINAVELKKPQCKVCRSCPVVQSSQHLFLDLPKLEKRLEEWLGRTLPGSDWTPNAQFITRSWLRDGLKPRCITRDLKWGTPVPLEGFEDKVFYVWFDATIGYLSITANYTDQWERWWKNPEQVDLYQFMAKDNVPFHSLVFPCSALGAEDNYTLVSHLIATEYLNYEDGKFSKSRGVGVFGDMAQDTGIPADIWRFYLLYIRPEGQDSAFSWTDLLLKNNSELLNNLGNFINRAGMFVSKFFGGYVPEMVLTPDDQRLLAHVTLELQHYHQLLEKVRIRDALRSILTISRHGNQYIQVNEPWKRIKGSEADRQRAGTVTGLAVNIAALLSVMLQPYMPTVSATIQAQLQLPPPACSILLTNFLCTLPAGHQIGTVSPLFQKLENDQIESLRQRFGGGQAKTSPKPAVVETVTTAKPQQIQALMDEVTKQGNIVRELKAQKADKNEVAAEVAKLLDLKKQLAVAEGKPPEAPKGKKKK
Take B1: the binding result in experiment [2] is recorded as “binds”.

B2: RARS (enzyme, UniProt P54136 1-660)
chain: MDVLVSECSARLLQQEEEIKSLTAEIDRLKNCGCLGASPNLEQLQEENLKLKYRLNILRKSLQAERNKPTKNMINIISRLQEVFGHAIKAAYPDLENPPLLVTPSQQAKFGDYQCNSAMGISQMLKTKEQKVNPREIAENITKHLPDNECIEKVEIAGPGFINVHLRKDFVSEQLTSLLVNGVQLPALGENKKVIVDFSSPNIAKEMHVGHLRSTIIGESISRLFEFAGYDVLRLNHVGDWGTQFGMLIAHLQDKFPDYLTVSPPIGDLQVFYKESKKRFDTEEEFKKRAYQCVVLLQGKNPDITKAWKLICDVSRQELNKIYDALDVSLIERGESFYQDRMNDIVKEFEDRGFVQVDDGRKIVFVPGCSIPLTIVKSDGGYTYDTSDLAAIKQRLFEEKADMIIYVVDNGQSVHFQTIFAAAQMIGWYDPKVTRVFHAGFGVVLGEDKKKFKTRSGETVRLMDLLGEGLKRSMDKLKEKERDKVLTAEELNAAQTSVAYGCIKYADLSHNRLNDYIFSFDKMLDDRGNTAAYLLYAFTRIRSIARLANIDEEMLQKAARETKILLDHEKEWKLGRCILRFPEILQKILDDLFLHTLCDYIYELATAFTEFYDSCYCVEKDRQTGKILKVNMWRMLLCEAVAAVMAKGFDILGIKPVQRM
For B2, the binding entry in experiment [2] is on record as “binds”.

Values taken from doi:10.1101/2023.05.15.540505.
